Experimental data published in the supplement of paper PMC10849652.
Some of the results follow.

The chains behind the UniProt entries cited, without tags or fusion partners. Where a name states a change or a piece, a line headed by the entry shows the natural chain unless it says otherwise.
UniProt O76070, whole entry, looked up: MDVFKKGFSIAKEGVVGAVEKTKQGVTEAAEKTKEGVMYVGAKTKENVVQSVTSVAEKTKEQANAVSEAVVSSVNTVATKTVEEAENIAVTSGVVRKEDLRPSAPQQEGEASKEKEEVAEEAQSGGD
UniProt O60264, whole entry, looked up: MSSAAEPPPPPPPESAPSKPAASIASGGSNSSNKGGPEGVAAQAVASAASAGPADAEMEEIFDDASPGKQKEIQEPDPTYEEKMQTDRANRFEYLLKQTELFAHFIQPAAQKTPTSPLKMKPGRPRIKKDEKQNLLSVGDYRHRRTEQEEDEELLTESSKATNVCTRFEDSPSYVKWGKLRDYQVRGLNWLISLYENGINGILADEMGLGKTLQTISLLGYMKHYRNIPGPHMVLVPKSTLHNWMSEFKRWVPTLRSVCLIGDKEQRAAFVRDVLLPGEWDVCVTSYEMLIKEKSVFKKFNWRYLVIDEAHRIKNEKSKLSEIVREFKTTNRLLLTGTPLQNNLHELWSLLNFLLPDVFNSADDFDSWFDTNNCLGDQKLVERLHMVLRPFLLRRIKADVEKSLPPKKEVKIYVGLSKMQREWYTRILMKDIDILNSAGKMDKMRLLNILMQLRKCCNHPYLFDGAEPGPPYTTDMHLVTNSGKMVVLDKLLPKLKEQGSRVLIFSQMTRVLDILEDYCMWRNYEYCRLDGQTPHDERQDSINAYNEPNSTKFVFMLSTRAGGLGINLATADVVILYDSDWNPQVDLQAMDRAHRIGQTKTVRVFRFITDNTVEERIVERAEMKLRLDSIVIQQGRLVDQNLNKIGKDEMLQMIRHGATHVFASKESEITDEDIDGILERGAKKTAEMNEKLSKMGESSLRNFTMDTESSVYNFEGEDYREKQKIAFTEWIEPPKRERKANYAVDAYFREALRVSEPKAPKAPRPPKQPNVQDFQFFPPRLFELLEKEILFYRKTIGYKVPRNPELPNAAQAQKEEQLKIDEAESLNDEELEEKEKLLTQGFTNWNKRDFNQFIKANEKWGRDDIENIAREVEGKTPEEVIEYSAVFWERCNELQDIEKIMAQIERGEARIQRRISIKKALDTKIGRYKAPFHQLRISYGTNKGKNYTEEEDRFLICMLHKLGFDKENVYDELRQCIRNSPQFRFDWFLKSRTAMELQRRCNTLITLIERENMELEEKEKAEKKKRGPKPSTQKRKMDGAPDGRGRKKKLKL
UniProt P18583: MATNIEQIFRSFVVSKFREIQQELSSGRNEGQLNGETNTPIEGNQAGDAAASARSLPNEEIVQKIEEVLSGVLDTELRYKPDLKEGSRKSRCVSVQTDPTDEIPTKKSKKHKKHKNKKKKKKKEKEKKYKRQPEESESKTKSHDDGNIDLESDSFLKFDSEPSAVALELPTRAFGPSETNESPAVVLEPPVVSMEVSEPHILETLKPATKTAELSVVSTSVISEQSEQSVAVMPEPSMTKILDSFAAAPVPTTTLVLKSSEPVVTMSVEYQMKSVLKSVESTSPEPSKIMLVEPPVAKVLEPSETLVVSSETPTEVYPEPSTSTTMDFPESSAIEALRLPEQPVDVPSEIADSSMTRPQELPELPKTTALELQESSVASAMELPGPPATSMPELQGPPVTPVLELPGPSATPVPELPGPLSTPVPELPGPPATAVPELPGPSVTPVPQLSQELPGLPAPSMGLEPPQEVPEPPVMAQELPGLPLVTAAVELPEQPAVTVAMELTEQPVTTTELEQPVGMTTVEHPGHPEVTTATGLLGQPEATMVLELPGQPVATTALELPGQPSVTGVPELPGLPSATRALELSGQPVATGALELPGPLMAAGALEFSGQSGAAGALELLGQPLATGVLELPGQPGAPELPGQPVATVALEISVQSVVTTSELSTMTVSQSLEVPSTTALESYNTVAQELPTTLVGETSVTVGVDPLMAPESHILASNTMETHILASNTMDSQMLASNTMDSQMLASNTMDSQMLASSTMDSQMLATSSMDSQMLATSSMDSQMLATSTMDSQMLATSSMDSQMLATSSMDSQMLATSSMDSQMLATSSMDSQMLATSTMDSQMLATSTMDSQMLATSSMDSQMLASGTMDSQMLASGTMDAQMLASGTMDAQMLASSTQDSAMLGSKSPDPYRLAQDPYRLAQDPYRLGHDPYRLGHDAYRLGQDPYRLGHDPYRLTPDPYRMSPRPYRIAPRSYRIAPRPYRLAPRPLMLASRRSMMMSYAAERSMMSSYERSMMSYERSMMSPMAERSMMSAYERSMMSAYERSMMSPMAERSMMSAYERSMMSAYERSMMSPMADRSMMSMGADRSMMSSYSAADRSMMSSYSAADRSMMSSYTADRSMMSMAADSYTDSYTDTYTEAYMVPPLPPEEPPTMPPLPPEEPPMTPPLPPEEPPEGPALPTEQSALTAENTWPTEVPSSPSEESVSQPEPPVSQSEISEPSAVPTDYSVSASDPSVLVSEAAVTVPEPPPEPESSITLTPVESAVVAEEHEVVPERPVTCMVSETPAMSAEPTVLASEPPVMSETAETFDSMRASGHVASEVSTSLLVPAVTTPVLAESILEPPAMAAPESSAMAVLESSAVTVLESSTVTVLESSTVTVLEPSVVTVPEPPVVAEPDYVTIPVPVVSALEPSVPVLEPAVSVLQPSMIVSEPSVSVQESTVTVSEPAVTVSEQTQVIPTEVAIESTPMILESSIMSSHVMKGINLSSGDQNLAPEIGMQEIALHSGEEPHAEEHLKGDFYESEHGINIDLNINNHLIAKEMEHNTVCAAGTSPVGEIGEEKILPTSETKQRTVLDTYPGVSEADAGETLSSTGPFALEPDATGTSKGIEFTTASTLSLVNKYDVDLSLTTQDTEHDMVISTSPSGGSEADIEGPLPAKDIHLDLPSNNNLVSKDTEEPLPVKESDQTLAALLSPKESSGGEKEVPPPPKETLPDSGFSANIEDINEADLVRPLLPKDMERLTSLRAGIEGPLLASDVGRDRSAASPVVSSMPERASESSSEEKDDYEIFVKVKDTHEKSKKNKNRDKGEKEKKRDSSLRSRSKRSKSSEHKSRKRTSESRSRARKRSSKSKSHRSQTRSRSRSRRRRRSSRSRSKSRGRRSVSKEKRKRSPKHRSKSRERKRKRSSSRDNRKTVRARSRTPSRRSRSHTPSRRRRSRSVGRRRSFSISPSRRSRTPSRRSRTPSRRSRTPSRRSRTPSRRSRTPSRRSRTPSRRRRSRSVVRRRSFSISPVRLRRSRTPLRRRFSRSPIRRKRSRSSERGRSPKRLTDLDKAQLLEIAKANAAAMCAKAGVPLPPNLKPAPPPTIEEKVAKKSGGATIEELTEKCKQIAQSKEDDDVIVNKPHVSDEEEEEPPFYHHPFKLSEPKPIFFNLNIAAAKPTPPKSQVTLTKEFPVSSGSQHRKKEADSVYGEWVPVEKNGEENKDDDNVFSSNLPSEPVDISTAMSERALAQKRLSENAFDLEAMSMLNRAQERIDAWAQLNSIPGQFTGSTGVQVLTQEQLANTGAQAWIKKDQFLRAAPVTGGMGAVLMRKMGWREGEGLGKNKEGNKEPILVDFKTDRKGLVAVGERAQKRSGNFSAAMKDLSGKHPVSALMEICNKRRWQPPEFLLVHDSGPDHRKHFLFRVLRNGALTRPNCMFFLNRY
UniProt Q7KZF4: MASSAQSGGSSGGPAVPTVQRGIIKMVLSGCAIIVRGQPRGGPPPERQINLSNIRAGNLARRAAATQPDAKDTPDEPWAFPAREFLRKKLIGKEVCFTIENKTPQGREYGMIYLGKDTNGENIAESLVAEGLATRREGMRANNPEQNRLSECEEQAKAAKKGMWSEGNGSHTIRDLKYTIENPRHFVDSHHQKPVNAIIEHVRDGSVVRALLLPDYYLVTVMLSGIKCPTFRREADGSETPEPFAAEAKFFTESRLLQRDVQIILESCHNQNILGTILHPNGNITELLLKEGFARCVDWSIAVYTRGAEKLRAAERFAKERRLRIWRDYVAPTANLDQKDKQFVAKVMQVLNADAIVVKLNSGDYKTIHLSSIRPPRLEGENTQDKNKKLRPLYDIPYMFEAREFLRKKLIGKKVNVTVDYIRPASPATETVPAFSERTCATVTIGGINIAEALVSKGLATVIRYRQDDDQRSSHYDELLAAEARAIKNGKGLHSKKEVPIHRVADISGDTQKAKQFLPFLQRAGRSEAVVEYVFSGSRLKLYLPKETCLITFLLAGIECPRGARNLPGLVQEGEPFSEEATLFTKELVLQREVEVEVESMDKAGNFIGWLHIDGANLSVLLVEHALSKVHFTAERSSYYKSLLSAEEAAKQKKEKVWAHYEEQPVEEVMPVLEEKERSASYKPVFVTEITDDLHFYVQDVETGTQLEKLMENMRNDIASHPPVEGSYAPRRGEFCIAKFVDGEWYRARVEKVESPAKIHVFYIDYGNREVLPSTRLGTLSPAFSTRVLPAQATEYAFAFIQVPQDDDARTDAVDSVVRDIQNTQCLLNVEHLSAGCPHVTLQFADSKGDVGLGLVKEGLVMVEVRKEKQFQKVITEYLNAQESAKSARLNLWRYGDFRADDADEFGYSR
UniProt O60271: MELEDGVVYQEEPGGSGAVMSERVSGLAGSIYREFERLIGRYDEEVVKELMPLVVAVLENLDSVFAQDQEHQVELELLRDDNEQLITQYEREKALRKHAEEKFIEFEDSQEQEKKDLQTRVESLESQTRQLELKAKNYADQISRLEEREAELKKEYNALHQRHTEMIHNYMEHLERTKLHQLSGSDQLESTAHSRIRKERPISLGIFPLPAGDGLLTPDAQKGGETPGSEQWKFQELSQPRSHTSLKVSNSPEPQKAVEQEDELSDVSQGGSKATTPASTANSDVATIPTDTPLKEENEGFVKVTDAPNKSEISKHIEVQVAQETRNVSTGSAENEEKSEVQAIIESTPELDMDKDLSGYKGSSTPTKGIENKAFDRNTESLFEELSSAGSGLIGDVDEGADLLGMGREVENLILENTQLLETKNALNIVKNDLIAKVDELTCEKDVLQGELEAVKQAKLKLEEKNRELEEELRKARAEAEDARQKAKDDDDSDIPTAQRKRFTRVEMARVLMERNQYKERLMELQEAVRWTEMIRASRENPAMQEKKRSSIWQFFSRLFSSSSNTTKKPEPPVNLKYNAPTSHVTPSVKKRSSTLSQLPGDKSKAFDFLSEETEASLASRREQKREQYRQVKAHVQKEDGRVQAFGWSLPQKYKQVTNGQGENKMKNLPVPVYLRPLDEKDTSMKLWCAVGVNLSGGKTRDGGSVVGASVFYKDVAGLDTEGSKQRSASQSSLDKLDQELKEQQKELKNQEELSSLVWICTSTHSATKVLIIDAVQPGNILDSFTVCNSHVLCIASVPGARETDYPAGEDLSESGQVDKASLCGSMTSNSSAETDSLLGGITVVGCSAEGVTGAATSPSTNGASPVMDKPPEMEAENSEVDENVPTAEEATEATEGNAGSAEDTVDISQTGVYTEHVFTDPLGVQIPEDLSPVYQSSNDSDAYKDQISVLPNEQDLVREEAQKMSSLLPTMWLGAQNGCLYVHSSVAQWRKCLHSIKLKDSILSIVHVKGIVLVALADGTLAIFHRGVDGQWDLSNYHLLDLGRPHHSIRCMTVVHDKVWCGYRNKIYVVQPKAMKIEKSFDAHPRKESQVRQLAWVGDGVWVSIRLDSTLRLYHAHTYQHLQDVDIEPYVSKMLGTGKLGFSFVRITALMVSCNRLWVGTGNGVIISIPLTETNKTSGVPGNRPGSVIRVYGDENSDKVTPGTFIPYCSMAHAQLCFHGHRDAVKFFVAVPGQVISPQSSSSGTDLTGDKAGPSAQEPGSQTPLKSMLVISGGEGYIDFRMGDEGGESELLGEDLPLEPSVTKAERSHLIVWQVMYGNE
UniProt Q13596, whole entry, looked up: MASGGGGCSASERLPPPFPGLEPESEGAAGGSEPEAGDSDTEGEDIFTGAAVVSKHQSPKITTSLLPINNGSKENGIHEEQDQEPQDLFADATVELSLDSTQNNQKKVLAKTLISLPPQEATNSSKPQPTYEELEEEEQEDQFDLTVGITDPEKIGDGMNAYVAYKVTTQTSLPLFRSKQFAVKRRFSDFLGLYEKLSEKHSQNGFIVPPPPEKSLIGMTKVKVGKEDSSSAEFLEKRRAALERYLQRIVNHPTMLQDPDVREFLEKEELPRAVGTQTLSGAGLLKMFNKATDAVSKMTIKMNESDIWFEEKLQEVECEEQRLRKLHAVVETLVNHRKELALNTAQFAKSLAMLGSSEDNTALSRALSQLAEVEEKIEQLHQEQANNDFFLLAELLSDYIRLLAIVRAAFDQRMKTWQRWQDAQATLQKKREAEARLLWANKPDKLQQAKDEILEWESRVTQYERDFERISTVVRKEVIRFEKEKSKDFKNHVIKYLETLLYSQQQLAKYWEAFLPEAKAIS
UniProt Q7Z3B0: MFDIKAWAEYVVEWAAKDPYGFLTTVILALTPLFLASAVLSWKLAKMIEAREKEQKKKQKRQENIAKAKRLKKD
UniProt P62316, whole entry, looked up: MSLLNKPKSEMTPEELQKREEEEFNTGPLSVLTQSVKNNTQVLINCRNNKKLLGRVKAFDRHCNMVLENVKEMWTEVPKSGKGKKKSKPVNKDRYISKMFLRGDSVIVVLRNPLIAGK

Compound: COc1cc2nc(-c3cc(F)ccc3O)nc(N[C@@H]3CNC[C@H]3C(C)(C)O)c2cc1OC
Test: log2 fold change, soluble protein after heating vs DMSO (PISA); higher = thermal stabilisation; K562 lysate, 10 uM; active = over 0.2 and 3.5 SD of the protein, either way, in both replicates (recomputed)
In short: (§1)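 Dounce homogenisation of K562 pellets in PBS pH 7.4 with 1 mM MgCl2 produced a crude extract, used at 1 mg/mL protein. Exposure to 10 μM compound lasted 30 min, and aliquots were then heated for 3 min across 48°C-58°C, pooled and brought to 0.5% NP-40 at 4°C. The supernatant after 21,000xg for 90 min was quantified by TMTpro 16plex LC-MS/MS with channel sums equalised. Duplicate values are given as log-two fold change in thermal stability relative to solvent controls.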

log2 fold change, inactive:
SNX6, A0A0A0MRI2 -0.003
SNCG (UniProt O76070) 0.007
SMNDC1 (UniProt O75940) 0.004
SNRNP200 (UniProt O75643) 0.001
SOS1 (UniProt Q07889) 0.014
SMC3 (UniProt Q9UQE7) -0.013
SMARCA5 (UniProt O60264) 0.009
SMARCB1 (UniProt Q12824) 0.005
SNRPD3 (UniProt P62318) 0.022
SON isoform 9 (UniProt P18583) 0.002
SND1 (UniProt Q7KZF4) -0.004
SMARCD2 (UniProt Q92925) -0.008
SPAG9 (UniProt O60271) 0.005
SMG9 (UniProt Q9H0W8) 0.03
SNAP23 (UniProt O00161) 0.005
SNRPB2 (UniProt P08579) 0.025
SNX1 (UniProt Q13596) -0.014
SORBS1 isoform 8 (UniProt Q9BX66) -0.011
SMG5 (UniProt Q9UPR3) 0.004
SNW1 (UniProt Q13573) -0.003
SMIM15 (UniProt Q7Z3B0) 0.01
SNRPG (UniProt P62308) 0.007
SNX17 (UniProt Q15036) -0.053
SMUG1 (UniProt Q53HV7) 0.021
SNRPD2 (UniProt P62316) 0.029
SMYD5 (UniProt Q6GMV2) 0.01
SNX9 (UniProt Q9Y5X1) 0.023
SNRPB isoform 3 (UniProt P14678) 0.033
SNRPC (UniProt Q5TAL2) 0.013

Compound: COc1cc2ncnc(Nc3ccc(F)c(Cl)c3)c2cc1OCCCN1CCOCC1 [gefitinib]
Test: as above
In short: as §1

log2 fold change, inactive:
SNX6, A0A0A0MRI2 -0.01
SNCG (UniProt O76070) 0
SMNDC1 (UniProt O75940) 0.014
SNRNP200 (UniProt O75643) -0.009
SOS1 (UniProt Q07889) -0.055
SMC3 (UniProt Q9UQE7) -0.005
SMARCA5 (UniProt O60264) 0.005
SMARCB1 (UniProt Q12824) -0.012
SNRPD3 (UniProt P62318) 0.052
SON isoform 9 (UniProt P18583) -0.046
SND1 (UniProt Q7KZF4) -0.017
SMARCD2 (UniProt Q92925) -0.006
SPAG9 (UniProt O60271) 0.027
SMG9 (UniProt Q9H0W8) -0.021
SNAP23 (UniProt O00161) 0.02
SNRPB2 (UniProt P08579) 0.003
SNX1 (UniProt Q13596) -0.011
SORBS1 isoform 8 (UniProt Q9BX66) -0.005
SMG5 (UniProt Q9UPR3) 0.028
SNW1 (UniProt Q13573) -0.03
SMIM15 (UniProt Q7Z3B0) 0.007
SNRPG (UniProt P62308) 0.02
SNX17 (UniProt Q15036) -0.03
SMUG1 (UniProt Q53HV7) -0.137
SNRPD2 (UniProt P62316) -0.02
SMYD5 (UniProt Q6GMV2) 0.016
SNX9 (UniProt Q9Y5X1) -0.005
SNRPB isoform 3 (UniProt P14678) 0.009
SNRPC (UniProt Q5TAL2) -0.164
